Measurements reported in PubChem BioAssay AID743454 (Peter MacCallum Cancer Centre, 2014)

Purpose: 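Knock-downs lowering viability or raising caspase 3/7 activity in vorinostat-treated resistant cells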 (primary screen)
Cell system: human HCT116-VR colon cancer cells, selected for vorinostat resistance
Reagents: siRNA pool against human genes, 40 nM siRNA pool
Timing: vorinostat for 24 h, read-out about 72 h after transfection
Treatment: vorinostat at 2.5 µM final
Detection: 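Two measures, CellTiter-Fluor viability and luminescent caspase 3/7 activity, each as fold change against same-plate mock wells, mean of duplicates, then screen-wide robust z-score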
Direction: viability robust z-score: higher = more viable cells than screen typical; caspase robust z-score: higher = more caspase 3/7 activity than screen typical
Active means: 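a knock-down is a hit when classed RV1 or RV2 for lowered viability, or CA1 or CA2 for caspase activation; those lethal without drug were dropped; hits were retested singly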
Here is an unselected part of about 18,000 reagents tested. In the full data, 450 (2.5%) are marked active. 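Single biological run; no consistent viability z cut-off exists, so the class columns, not z-scores, define the calls.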 Entries without a mark were called inactive.

| gene knocked down | PubChem SID | viability hit class | caspase hit class | viability robust z-score | caspase robust z-score |
| --- | --- | --- | --- | --- | --- |
| SMCO4 | SID134324120 | no change | no change | -0.13 | 2.59 |
| COL5A2 | SID152148631 | no change | no change | 0.37 | -0.9 |
| KCTD7 | SID134320959 | no change | no change | 0.28 | -0.56 |
| NUCB2 | SID152150130 | no change | no change | 0.97 | -0.78 |
| CIDEB | SID152149417 | no change | no change | 0.47 | -0.54 |
| NEUROG1 | SID134313893 | no change | no change | 0.08 | 0.08 |
| OLFM3 | SID152151522 | no change | no change | 0.63 | -1.03 |
| CCL20 | SID134312771 | no change | no change | -0.15 | -0.82 |
| ACTB | SID152148908 | no change | no change | -0.64 | 0.26 |
| TOR2A | SID135622922 | no change | no change | -0.3 | 1.06 |
| ADAP2 | SID135623987 | no change | no change | -0.52 | -0.18 |
| C10orf120 | SID152153112 | no change | no change | -3.16 | 2.83 |
| IGFLR1 | SID152149569 | no change | no change | 0.77 | 0.35 |
| EXTL2 | SID135622344 | no change | no change | -0.26 | 0.13 |

Reprinted from the listing for reference:
| gene knocked down | PubChem SID | viability hit class | caspase hit class | viability robust z-score | caspase robust z-score |
| --- | --- | --- | --- | --- | --- |
| SMCO4 | SID134324120 | no change | no change | -0.13 | 2.59 |
| COL5A2 | SID152148631 | no change | no change | 0.37 | -0.9 |

Next reagents follow:
| gene knocked down | PubChem SID | viability hit class | caspase hit class | viability robust z-score | caspase robust z-score |
| --- | --- | --- | --- | --- | --- |
| FNDC9 | SID135625117 | no change | no change | -1.33 | 0.74 |
| ZNF468 | SID135624406 | no change | no change | 1.08 | 0.34 |
| TLN1 | SID134317195 | no change | no change | 1.57 | -0.82 |
| FCRL2 | SID134320480 | no change | no change | -2.36 | 1.92 |
| MIA3 | SID135625638 | no change | no change | 0.61 | -0.32 |
| MS4A14 | SID152152621 | no change | no change | -1.21 | -0.1 |
| CDH17 | SID135622204 | no change | no change | 2.18 | -0.66 |
| GNB5 | SID152155692 | no change | no change | -1 | 0.92 |
| TCF23 | SID135625227 | no change | no change | -2.23 | 0.85 |
| PHTF2 | SID152151343 | no change | no change | 0.05 | -1.08 |
| HPS6 | SID134321401 | no change | no change | 0.68 | -1.12 |
| FSTL4 | SID152154361 | no change | no change | 1.07 | 1.14 |
| ZIC3 | SID134316117 | no change | no change | -0.67 | 1.19 |
| AHCYL1 | SID152150184 | no change | no change | 0.36 | -0.74 |
| ARHGEF7 | SID134314345 | no change | no change | -0.23 | 0.07 |
| GTF3C4 | SID152154960 | no change | no change | 0.76 | 2.96 |
| PECAM1 | SID152150579 | no change | no change | 0.08 | 0.26 |
| RPS4X | SID152148249 | no change | no change | -6.57 | -1.68 |
| PLEKHA5 | SID134319430 | no change | no change | -0.32 | -0.45 |
| MS4A1 | SID152151670 | no change | no change | 0.33 | -0.04 |
| KIR3DL1 | SID152150253 | no change | no change | 0.56 | -1.08 |
| PAQR5 | SID135621492 | no change | no change | -0.32 | -0.78 |
| SCRIB | SID134315001 | no change | no change | -1.6 | -0.68 |
| MTSS1 | SID152150070 | no change | no change | -1.28 | -1.09 |
| SACM1L | SID134312341 | no change | no change | -0.12 | -0.57 |
